The target in the test is T1, wild-type Ocr with C-terminal Strep-tag II (bacteriophage T7) (UniProt P03775).
T1 sequence: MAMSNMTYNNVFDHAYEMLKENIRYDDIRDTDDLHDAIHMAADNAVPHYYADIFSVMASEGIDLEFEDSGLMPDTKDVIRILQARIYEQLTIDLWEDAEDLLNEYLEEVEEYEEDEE
In words: pull-down; Strep-tagged protein and candidate partner produced in E. coli BW25113 from compatible plasmids (BREX- or BREX+ cells); clarified lysate on a StrepTrap HP column, washed with buffer A (150 mM NaCl, 1 mM EDTA, 100 mM Tris-HCl pH 8.0), eluted with desthiobiotin; SDS-PAGE, bands identified by MALDI-TOF mass spectrometry.

Chains of the proteins cited; added tags and fusions are not shown.
UniProt P0A6Y8: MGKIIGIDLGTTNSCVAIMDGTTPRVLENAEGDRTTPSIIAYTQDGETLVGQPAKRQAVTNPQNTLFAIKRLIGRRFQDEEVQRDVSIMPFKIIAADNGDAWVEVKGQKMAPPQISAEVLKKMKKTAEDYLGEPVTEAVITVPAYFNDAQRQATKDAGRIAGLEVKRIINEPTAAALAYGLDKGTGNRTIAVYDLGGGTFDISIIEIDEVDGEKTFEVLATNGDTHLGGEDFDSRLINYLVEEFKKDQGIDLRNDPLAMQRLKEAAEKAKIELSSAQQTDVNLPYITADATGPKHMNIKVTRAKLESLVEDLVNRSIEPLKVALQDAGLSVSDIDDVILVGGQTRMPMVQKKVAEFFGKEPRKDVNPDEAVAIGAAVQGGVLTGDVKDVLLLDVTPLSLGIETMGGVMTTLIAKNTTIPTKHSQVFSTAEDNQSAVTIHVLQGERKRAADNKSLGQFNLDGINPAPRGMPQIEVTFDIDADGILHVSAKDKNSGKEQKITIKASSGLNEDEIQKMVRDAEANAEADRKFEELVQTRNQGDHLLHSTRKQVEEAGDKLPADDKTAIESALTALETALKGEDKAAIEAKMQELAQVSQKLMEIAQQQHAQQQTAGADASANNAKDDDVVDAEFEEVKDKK

Results are given in words; binding and its absence hold for the method and conditions named. In cells and extracts the contact can be indirect. Tags and fused reporters may be left off the sequences shown.

For DnaK (from UniProt P0A6Y8 1-638), the binding entry is on record as “no binding”.

The values above are taken from paper PMC7261183.
